From article PMC7423155
These are yes or no findings as the source states them, for the method shown. Binding seen in cells or lysates may run through a third protein. Some results given as binding are weak or reduced against the parent protein; the word gives no strength.

Amino acid sequences for entries named in this document (tags omitted). Residues count along the entry.
UniProt Q96I51, residues 38-464: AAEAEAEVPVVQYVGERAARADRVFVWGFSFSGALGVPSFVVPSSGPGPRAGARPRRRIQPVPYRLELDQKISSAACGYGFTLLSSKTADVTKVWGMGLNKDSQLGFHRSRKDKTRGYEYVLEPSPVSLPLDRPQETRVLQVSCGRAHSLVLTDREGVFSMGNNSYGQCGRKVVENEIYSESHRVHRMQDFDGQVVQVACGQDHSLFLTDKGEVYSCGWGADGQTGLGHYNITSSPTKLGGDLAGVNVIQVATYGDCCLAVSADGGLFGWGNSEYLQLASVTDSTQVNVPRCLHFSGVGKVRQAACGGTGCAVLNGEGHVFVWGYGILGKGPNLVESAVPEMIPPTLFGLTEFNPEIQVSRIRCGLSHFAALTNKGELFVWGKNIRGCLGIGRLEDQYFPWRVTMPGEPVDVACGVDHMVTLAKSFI
UniProt A4D1E9: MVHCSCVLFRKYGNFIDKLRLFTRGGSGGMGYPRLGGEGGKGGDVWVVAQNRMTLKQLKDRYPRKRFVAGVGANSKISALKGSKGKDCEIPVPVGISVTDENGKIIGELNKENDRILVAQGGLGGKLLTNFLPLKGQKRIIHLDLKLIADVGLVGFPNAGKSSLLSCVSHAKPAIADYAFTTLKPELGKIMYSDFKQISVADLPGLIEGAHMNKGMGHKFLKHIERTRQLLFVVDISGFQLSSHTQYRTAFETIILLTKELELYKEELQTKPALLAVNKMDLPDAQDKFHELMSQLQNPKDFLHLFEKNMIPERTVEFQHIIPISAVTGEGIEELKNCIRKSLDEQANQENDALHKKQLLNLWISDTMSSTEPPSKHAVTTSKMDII

Target: STREP2-FLAG-tagged RCC1L^V1 (human) (UniProt Q96I51)
Test: co-IP; STREP2-FLAG-tagged RCC1L isoform as bait, captured on Strep-Tactin Sepharose overnight from trypsin-treated, sucrose gradient-purified HEK mitochondria lysed with 0.8% DDM; 10 washes; elution with 10 mM desthiobiotin; endogenous proteins in the elution found by immunoblot

binding: binds
Substance: GTPBP10 (from UniProt A4D1E9 1-387) (enzyme)
